PubChem BioAssay AID743255 (National Center for Advancing Translational Sciences (NCATS), 2014)
Among all 390,000 compounds or so, about 910 (0.23%) were called active. The shares of active, inactive and inconclusive entries below differ from those in the screen. The call rests on the fitted dose curve; in most records, active means well fitted inhibition curve with a large enough effect; inconclusive means small, poorly fitted or top-dose-only effect; inactive means no such curve, though single readings can be large or run the other way. Potencies of inconclusive entries are doubtful fits and often do not repeat.

By UniProt entry, the sequences of proteins in these tests, tags left out. Where a name states a change or a piece, a line headed by the entry shows the natural chain unless it says otherwise.
UniProt O94782: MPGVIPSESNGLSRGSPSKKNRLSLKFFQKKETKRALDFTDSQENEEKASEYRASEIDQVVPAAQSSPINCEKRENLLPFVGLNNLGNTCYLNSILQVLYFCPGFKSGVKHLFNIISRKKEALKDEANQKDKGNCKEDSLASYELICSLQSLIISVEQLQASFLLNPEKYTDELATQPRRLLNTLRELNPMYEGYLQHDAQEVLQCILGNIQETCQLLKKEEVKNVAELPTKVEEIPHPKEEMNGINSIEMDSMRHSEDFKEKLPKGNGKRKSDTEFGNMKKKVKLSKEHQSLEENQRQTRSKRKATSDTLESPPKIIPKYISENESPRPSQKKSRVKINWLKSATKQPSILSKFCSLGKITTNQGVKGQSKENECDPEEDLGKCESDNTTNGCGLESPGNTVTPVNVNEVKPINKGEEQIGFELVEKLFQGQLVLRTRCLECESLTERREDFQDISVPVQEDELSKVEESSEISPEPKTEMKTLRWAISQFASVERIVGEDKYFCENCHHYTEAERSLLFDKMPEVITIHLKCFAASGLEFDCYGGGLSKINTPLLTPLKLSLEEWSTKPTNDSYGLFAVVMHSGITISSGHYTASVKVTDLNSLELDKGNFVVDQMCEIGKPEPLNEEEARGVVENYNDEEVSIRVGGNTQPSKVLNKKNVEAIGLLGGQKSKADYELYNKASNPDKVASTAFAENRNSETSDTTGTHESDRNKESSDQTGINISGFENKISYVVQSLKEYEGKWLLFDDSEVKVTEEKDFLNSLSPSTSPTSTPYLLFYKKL

target: Ubiquitin carboxyl-terminal hydrolase 1 (Homo sapiens) (UniProt O94782); assay: Inhibitors of USP1/UAF1: Primary Screen; conditions: recombinant USP1/UAF1, Ub-Rhodamine cleavage fluorescence; activity change, negative = inhibition: at 57.1 µM (top of the series); further: nearly all actives have a fitted effect of over 60% in size
Procedure, shortened: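 1 nM enzyme complex + cpd, 15 min RT; start with Ub-Rho 150nM final; kinetic fluorescence ex 480/em 540, 6 reads q60 s. Buffer 50mM HEPES pH 7.8, 0.5mM EDTA, 0.1 mg/ml BSA, 1mM TCEP, 0.01% Tween-20.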
On the % scale 0 is the no-effect control and ±100 the full control effect; potency means the concentration at half of the fitted maximal effect.

**Q.** How did the Potency turn out when Cc1cc(C)nc(Nc2ncc(O)n2-c2ccccc2)n1 was run?
**A.** inconclusive: 0.282 µM [inhibitor, full curve]

**Q.** How did the “activity change, negative = inhibition” value turn out when CCC(=O)N1c2ccccc2CC1C(=O)NCc1ccc(CC)cc1 (configuration not stated) was run?
**A.** inactive: 0.406%

**Q.** Which Potency does the source give for CCc1ccc2ncc3c(-c4ccc(C)cc4)nn(CC(=O)NCc4ccccc4)c3c2c1 here?
**A.** inconclusive: 31.6 µM [inhibitor, partial curve]

**Q.** O=C(CCC(=O)N(CC(=O)NC1CCCC1)Cc1ccccc1)Nc1nccs1 was tested. Which “activity change, negative = inhibition” value did it give?
**A.** inactive: -7.14%

**Q.** How did the Potency turn out when Cc1ccccc1NC(=O)Cn1nc(-c2ccccc2)nc(Cc2ccccc2)c1=O was run?
**A.** inconclusive: 35.5 µM [inhibitor, partial curve, poor fit]

**Q.** Which Potency does the source give for Oc1ccc(-c2nc3ccc(Cl)cn3c2Nc2ccc(Cl)cc2)cc1 here?
**A.** inconclusive: 0.316 µM [inhibitor, full curve, poor fit]

**Q.** CC(=O)c1ccc(-c2ccc(C(=O)Nc3nc(-c4ccccn4)cs3)o2)cc1 was tested. Which Potency did it give?
**A.** inconclusive: 44.7 µM [inhibitor, partial curve, poor fit]

**Q.** With COc1cc2cc(CCCO)oc(=O)c2cc1OC as the compound, how does the Potency read?
**A.** inconclusive: 50.1 µM [inhibitor, partial curve, poor fit]

**Q.** With COc1cccc(NC(=S)Nc2ccc(O)cc2)c1 as the compound, how does the Potency read?
**A.** inconclusive: 35.5 µM [inhibitor, partial curve]

**Q.** For Cc1ccc([C@H]2C(C(=O)O)=CC[C@@H](c3ccc(Cl)c(Cl)c3)N2S(=O)(=O)c2ccc(C)cc2)cc1, which Potency is on record?
**A.** inconclusive: 3.16 µM [inhibitor, full curve]

**Q.** CCc1ccc(NC(=O)CSc2nc(C)c(C(=O)Nc3ccccc3)c(-c3ccc(OC)c(OC)c3)c2C#N)cc1 was tested. Which Potency did it give?
**A.** inconclusive: 50.1 µM [inhibitor, partial curve, poor fit]

**Q.** With Cc1ccc(-n2nc(C(=O)N3CCN(c4ccccc4F)CC3)c(=O)n(C)c2=O)cc1 as the compound, how does the Potency read?
**A.** inconclusive: 35.5 µM [inhibitor, single point]

**Q.** How did the Potency turn out when O=C(NCc1ccccc1F)C(=O)NCC(c1ccc2c(c1)OCO2)N1CCOCC1 (configuration not stated) was run?
**A.** inconclusive: 0.891 µM [inhibitor, full curve, poor fit]

**Q.** How did the Potency turn out when Cc1ccc(-c2cc(C(=O)N3CCN(C(=O)c4ccco4)CC3)[nH]n2)c(C)c1 was run?
**A.** inconclusive: 3.16 µM [inhibitor, full curve, poor fit]

**Q.** How did the Potency turn out when COc1ccc(CCNC(=O)c2cc(C)oc2C)cc1OC was run?
**A.** inconclusive: 12.6 µM [inhibitor, partial curve, poor fit]

**Q.** How did the Potency turn out when CCCCN(CCCC)C1=Nc2ccccc2N/C1=C(/C#N)C(=O)OCC was run?
**A.** inconclusive: 35.5 µM [inhibitor, partial curve]

**Q.** Which Potency does the source give for CCN1C(=O)[C@@H]2[C@@H](c3ccc(-c4ccc(C(C)=O)cc4)c(OC)c3)N3CCCC[C@@]3(C(=O)OC)[C@@H]2C1=O here?
**A.** inconclusive: 89.1 µM [inhibitor, partial curve, poor fit]

**Q.** CC1=C(C#N)C(=O)NC(=O)/C1=C/c1ccc(-c2ccc(S(N)(=O)=O)cc2)o1 was tested. Which Potency did it give?
**A.** inconclusive: 22.4 µM [inhibitor, partial curve]

**Q.** COC(=O)CSc1nnc(CSc2nc(C)cc(C)n2)o1 was tested. Which Potency did it give?
**A.** inconclusive: 50.1 µM [inhibitor, single point]

**Q.** How did the “activity change, negative = inhibition” value turn out when CC1CC(C)CN(CC(C)(C)NS(=O)(=O)c2ccc(Cl)cc2)C1 (configuration not stated) was run?
**A.** inactive: -15.3%

**Q.** How did the Potency turn out when O=C(OCc1cc(=O)n2nc(-c3cccs3)sc2n1)c1ccccc1Cl was run?
**A.** inconclusive: 56.2 µM [inhibitor, partial curve, poor fit]

**Q.** Which Potency does the source give for CSc1ccc(CCNC(=O)c2cc(C)nc3c2c(C)nn3-c2cccc(F)c2)cc1 here?
**A.** inconclusive: 0.316 µM [inhibitor, full curve, poor fit]

**Q.** For Cc1ccc(S(=O)(=O)N2CCCCC2)cc1NC(=O)C1COc2ccccc2O1 (configuration not stated), which Potency is on record?
**A.** inconclusive: 0.251 µM [inhibitor, full curve, poor fit]

**Q.** Which Potency does the source give for Cc1ccc(OCc2nc(-c3ccccc3)no2)cc1 here?
**A.** inconclusive: 22.4 µM [inhibitor, partial curve, poor fit]

**Q.** Cc1cccc2nc(-c3ccccn3)c(Nc3ccc(F)cc3)n12 was tested. Which “activity change, negative = inhibition” value did it give?
**A.** inactive: -24.3%

**Q.** Cc1cc(C)cc(N2C(=O)CSC23C(=O)N(Cc2c(F)cccc2Cl)c2ccccc23)c1 (configuration not stated) was tested. Which “activity change, negative = inhibition” value did it give?
**A.** inactive: -18.9%

**Q.** With O=C(CN1CCN(Cc2ccccc2)CC1)Nc1ccc(N2CCOCC2)cc1 as the compound, how does the Potency read?
**A.** inconclusive: 28.2 µM [inhibitor, partial curve]

**Q.** How did the Potency turn out when CC1(OC(=O)CCc2ccccc2)C(=O)C=C2C=C(c3ccc(C#N)cc3)N(C(CO)CO)C=C2C1=O (configuration not stated) was run?
**A.** inconclusive: 5.62 µM [inhibitor, full curve, poor fit]

**Q.** With O=C(NCCCN1CCOCC1)C(=O)N/N=C/c1cccc2ccccc12 as the compound, how does the Potency read?
**A.** inconclusive: 2.51 µM [inhibitor, full curve]

**Q.** CC[C@]12c3[nH]c4ccccc4c3CCN1C(=O)C(CC(=O)NCc1cccc(C(F)(F)F)c1)C[C@@H]2C(=O)N1CCN(C(=O)C2CC2)CC1 (some centres not stated) was tested. Which Potency did it give?
**A.** inconclusive: 56.2 µM [inhibitor, partial curve, poor fit]

**Q.** Which “activity change, negative = inhibition” value does the source give for O=[N+]([O-])c1ccc(-c2nc(C(Cl)Cl)c3ccccc3n2)cc1 here?
**A.** inactive: -12.6%

**Q.** Which “activity change, negative = inhibition” value does the source give for CCOC(=O)C1=C(C)NC(C)=C(C(=O)OCC)C1C(=O)OCC(=O)N(C)C here?
**A.** inactive: -19.7%

**Q.** How did the Potency turn out when CC1CCCN(c2nc3c(c(=O)[nH]c(=O)n3C)n2CCCc2ccccc2)C1 (configuration not stated) was run?
**A.** inconclusive: 20 µM [inhibitor, partial curve]

**Q.** Which Potency does the source give for Cc1cc(Nc2ccc(F)cc2F)nc(-n2nc(C)cc2C)n1 here?
**A.** inconclusive: 15.8 µM [inhibitor, partial curve, poor fit]

**Q.** CCc1nnc(NC(=O)c2ccc(COc3cccc(C)c3)o2)s1 was tested. Which Potency did it give?
**A.** inconclusive: 31.6 µM [inhibitor, partial curve]

**Q.** For Cc1ccc(C(=O)Nc2cccc(C(F)(F)F)c2)cc1NC(=O)c1ccno1, which Potency is on record?
**A.** inconclusive: 39.8 µM [inhibitor, partial curve, poor fit]

**Q.** With COc1cc(C(C)=O)ccc1OCC(O)CN1CCN(S(=O)(=O)c2ccccc2)CC1 (configuration not stated) as the compound, how does the “activity change, negative = inhibition” value read?
**A.** inactive: -23.7%

**Q.** COc1ccc(NC(=O)/C(=C\c2ccc(F)cc2)NC(=O)c2ccco2)cc1 was tested. Which Potency did it give?
**A.** inconclusive: 31.6 µM [inhibitor, partial curve, poor fit]

**Q.** How did the Potency turn out when COc1cc(OC)c(OC)cc1CNCc1ccco1 was run?
**A.** inconclusive: 1 µM [inhibitor, full curve, poor fit]

**Q.** With Cc1cccc(N2C(=O)Cc3ccccc3C2=O)c1 as the compound, how does the Potency read?
**A.** inconclusive: 15.8 µM [inhibitor, partial curve]

**Q.** How did the “activity change, negative = inhibition” value turn out when C=CCNC(=O)C(=O)Nc1cc2c3c(c1)CCC(=O)N3CCC2 was run?
**A.** inactive: -23%

**Q.** CC(C)C(=O)Nc1c(C(=O)N2CCN(c3ncccn3)CC2)oc2ccccc12 was tested. Which Potency did it give?
**A.** inconclusive: 50.1 µM [inhibitor, partial curve]

**Q.** For O=C(Nc1ccccc1)/C(=C/c1cccc(Br)c1)NC(=O)c1ccco1, which Potency is on record?
**A.** inconclusive: 35.5 µM [inhibitor, partial curve, poor fit]

**Q.** Which “activity change, negative = inhibition” value does the source give for COc1ccccc1C(CNC(=O)c1cccc(S(=O)(=O)N2c3ccccc3CC2C)c1)N(C)C (configuration not stated) here?
**A.** inactive: -8.89%

**Q.** How did the Potency turn out when CC(C)CCNc1nc(Nc2ccccc2)c2cnn(C)c2n1 was run?
**A.** inconclusive: 12.6 µM [inhibitor, partial curve]

**Q.** With COc1ccc(NS(=O)(=O)c2ccc3c(c2)OCCO3)cc1OC as the compound, how does the “activity change, negative = inhibition” value read?
**A.** inactive: -21.9%

**Q.** With Cc1ccc2cc(NC(=O)Cc3ccccc3)ccc2n1 as the compound, how does the Potency read?
**A.** inconclusive: 50.1 µM [inhibitor, partial curve, poor fit]

**Q.** How did the “activity change, negative = inhibition” value turn out when Cc1ccc(C)c(NC(=O)c2nc(S(=O)(=O)Cc3ccc(F)cc3)ncc2Cl)c1 was run?
**A.** inactive: -17.2%

**Q.** With Nc1ccc(S(=O)(=O)Nc2nccs2)cc1N=Nc1ccccc1[N+](=O)[O-] as the compound, how does the “activity change, negative = inhibition” value read?
**A.** inactive: -16%

**Q.** C=CCn1c(SCn2nnc3ccccc3c2=O)nc2scc(-c3cccs3)c2c1=O was tested. Which Potency did it give?
**A.** inconclusive: 3.55 µM [inhibitor, single point]

**Q.** For CN(C)c1ccc(CNC(=O)C2CCN(S(=O)(=O)c3ccc4c(c3)CCC(=O)N4)CC2)cc1, which Potency is on record?
**A.** inconclusive: 0.631 µM [inhibitor, full curve]

**Q.** With CC(C)c1ccc(NC2CCCN(C(=O)c3ccoc3)C2)cc1 (configuration not stated) as the compound, how does the “activity change, negative = inhibition” value read?
**A.** inactive: 2.72%

**Q.** CC(CC(=O)Nc1ccc(F)cc1)S(=O)(=O)c1cc2c3c(c1)CCN3C(=O)CC2 (configuration not stated) was tested. Which “activity change, negative = inhibition” value did it give?
**A.** inactive: -20.2%

**Q.** For CCN1CCN(C2=CC3=CC(=C(C#N)C#N)CCC3CC2)CC1 (configuration not stated), which Potency is on record?
**A.** active: 28.2 µM

**Q.** For Nc1c(C(=O)N/N=C/c2ccc(F)cc2)oc2nc(-c3ccccc3)cc(-c3ccco3)c12, which Potency is on record?
**A.** inconclusive: 44.7 µM [inhibitor, partial curve, poor fit]

**Q.** With O=S(=O)(NC1CC(NS(=O)(=O)OCC(Cl)(Cl)Cl)C2CCCCC12)OCC(Cl)(Cl)Cl (configuration not stated) as the compound, how does the Potency read?
**A.** inconclusive: 44.7 µM [inhibitor, partial curve]

**Q.** For O=C(NNc1c2ccccc2nc2ccccc12)c1cc2ccccc2cc1O, which Potency is on record?
**A.** inconclusive: 25.1 µM [inhibitor, partial curve]

**Q.** How did the Potency turn out when Cc1ccc(-c2nnc(N3CC(C)OC(C)C3)c3ccccc23)cc1 (configuration not stated) was run?
**A.** inconclusive: 25.1 µM [inhibitor, partial curve, poor fit]

**Q.** CCCCC1(C)OC(=O)C(=Cc2c[nH]c3ccccc23)C(=O)O1 (configuration not stated) was tested. Which Potency did it give?
**A.** inconclusive: 35.5 µM [inhibitor, partial curve, poor fit]

**Q.** For OCCCNc1cc(-c2ccnc(Nc3cccc(Cl)c3)n2)ccn1, which Potency is on record?
**A.** inconclusive: 50.1 µM [inhibitor, partial curve, poor fit]

**Q.** How did the “activity change, negative = inhibition” value turn out when NC(=O)CC[C@H](NC(=O)c1ccc(F)cc1)C(=O)OCC(=O)Nc1c(F)c(F)c(F)c(F)c1F was run?
**A.** inactive: -16.9%

**Q.** With CC(C)c1ccc(/C=C/C(=O)NCc2ccc(S(N)(=O)=O)cc2)cc1 as the compound, how does the Potency read?
**A.** inconclusive: 39.8 µM [inhibitor, partial curve, poor fit]
